# Source: PubChem BioAssay AID1671195 (Yale University, 2021)
# Test: 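Knockdowns that increase or decrease uptake of fluorescent LDL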 (primary screen)
# Cell system: human Huh7 hepatoma cells
# Reagent: siRNA pool against human genes, 18 nM
# Time to read-out: about 2 to 2.5 days of knockdown, then 8 h LDL uptake
# Challenge: DiI-labelled LDL at 30 µg/ml for 8 h, in lipoprotein-deficient serum medium
# Measurement: 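Fluorescent LDL signal imaged in cells, scaled to the plate median, robust z-score for each replicate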
# Reading the numbers: robust z-score: higher = more LDL uptake after knockdown
# Call rule: 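Active when two or more replicates show a robust z-score above 2 or below -2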
# This is an unselected part of about 22,000 deposited reagents. Over the whole deposit, about 1,510 (6.9%) are marked active. 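Active includes knockdowns raising or lowering LDL uptake; positive z-scores mean more uptake, negative mean less.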 The numbers tell different reagents against one gene apart.
target,reagent no.,"robust z-score, replicate 1","robust z-score, replicate 2","robust z-score, replicate 3",Call
POMGNT1,1,-1.47,-1.07,-0.976,inactive
MED16,1,-1.22,-0.357,-1.38,inactive
PDSS1,1,1.44,0.731,1.65,inactive
CCDC127,1,0.797,0.759,-0.263,inactive
UBL5,1,-0.13,-0.308,-0.992,inactive
OR4F6,1,-1.08,-1.41,-1.25,inactive
RPS3AP18,1,-1.04,-0.688,-1.02,inactive
SNTG1,1,0.404,0.3,0.551,inactive
ELAVL2,1,-1.17,-1.23,-0.936,inactive
LOC90462 (retired record),1,-0.406,-0.568,-0.876,inactive
PKD1L1-AS1,1,2.13,2.11,1.83,active
TEK,1,-0.36,-0.523,-0.254,inactive
DIPK1B,1,-0.908,-1.17,-0.0406,inactive
DNAH17,1,-1.93,-2.18,-1.49,active
DNAH17,2,-0.0609,-0.0324,0.0651,inactive
CHP2,1,-0.729,-1.42,0.00197,inactive
ARHGAP27P1,1,-0.52,0.57,-0.945,inactive
ISX,1,-0.0553,-0.248,-0.466,inactive
LCOR,1,-1.27,-0.848,-0.88,inactive
LCOR,2,-1.68,-1.49,-0.847,inactive
ZBTB7B,1,-1.53,-1,-1.34,inactive
LOC441356 (retired record),1,1.37,0.601,0.585,inactive
TMEM233,1,-0.538,-0.64,-0.398,inactive
PLEKHG1,1,-1.14,-2.09,-2.19,active
GPR22,1,2.41,2.02,2.83,active
RPS6P13,1,0.0454,0.807,1.08,inactive
FOXP4,1,0.212,0.455,0.923,inactive
PRPS1L1,1,0.47,1.6,1.53,inactive
FHL5,1,0.843,1.22,1.33,inactive
SRD5A1,1,1.17,1.45,1.12,inactive
DPPA3,1,2.31,2.01,1.99,active
TTPA,1,-0.485,-0.912,-0.725,inactive
LOC387648 (retired record),1,-0.703,-0.573,-0.768,inactive
SIGLEC9,1,0.553,0.35,0.965,inactive
ZNF469,1,-0.32,0.651,0.0877,inactive
WDR59,1,0.804,1.7,2.08,inactive
GLIS2,1,-1.85,-2.48,-2.31,active
RBMS1,1,-0.944,0.0322,-1.04,inactive
REN,1,1.02,0.552,0.543,inactive
OLFM2,1,-0.0723,-1.02,-0.554,inactive
LOC439948 (retired record),1,1.13,0.933,0.693,inactive
C14orf180,1,0.401,0.699,0.518,inactive
RPL29P32,1,-0.39,-0.53,-0.506,inactive
LOC730011,1,-1.35,-1.05,-0.926,inactive
IFITM3P9,1,-1.06,-0.775,-0.761,inactive
NRROS,1,-0.7,-0.673,-0.847,inactive
COL4A2,1,1.83,0.134,1.04,inactive
PRM1,1,-2.38,-0.47,-2.46,active
GRB10,1,-0.803,-0.237,-0.155,inactive
ZMYND8,1,-0.942,0.32,-1.08,inactive
HUWE1,1,-0.811,-0.677,-1.47,inactive
CLEC2L,1,-0.709,-0.212,0.075,inactive
CCDC62,1,-1.21,-1.46,-1.5,inactive
LOC442020 (retired record),1,0.331,0.339,0.47,inactive
IMPG2,1,0.751,-1.22,1.18,inactive
IFT46,1,0.469,-0.0278,1.42,inactive
LEO1,1,-0.271,0.283,0.664,inactive
GNB5,1,2.11,3.41,2.36,active
NHSL1,1,2.1,1.95,0.646,active
PP2D1,1,-0.415,0.126,-0.483,inactive
ZNF679,1,1.6,0.502,0.486,inactive
ISLR2-AS1,1,0.0881,0.269,0.351,inactive
ZFYVE16,1,-0.0584,-0.351,-0.305,inactive
PRR15L,1,0.0645,0.68,0.548,inactive
F2R,1,-1.38,-0.766,-1.54,inactive
LOC440706 (retired record),1,-0.513,-0.302,-0.486,inactive
ZNF584,1,1.55,0.957,1.51,inactive
UHMK1,1,2.13,3.53,1.72,active
ITPRIPL1,1,-0.784,0.216,-1.14,inactive
SFTPA2B (retired record),1,0.586,-0.742,0.475,inactive
LOC441305 (retired record),1,-0.462,-0.705,-0.612,inactive
IGSF9B,1,1.79,1.9,1.11,inactive
IGSF9B,2,2.15,0.952,1.56,inactive
TBPL2,1,0.494,0.227,0.103,inactive
FASTKD1,1,-0.807,-0.614,-0.55,inactive
ZFYVE27,1,0.101,-0.159,-1.04,inactive
SAG,1,3.11,0.476,1.19,inactive
IZUMO1,1,-0.585,-0.348,-0.0678,inactive
CACNG8,1,-0.524,-0.725,-0.254,inactive
CLPS,1,1.98,2.27,2.17,active
FGD5,1,0.169,1.02,-0.169,inactive
N4BP2L1,1,1.52,1.06,2.6,inactive
PTGER3,1,-1.29,-0.991,-1.67,inactive
TRMT2A,1,0.051,-0.229,0.808,inactive
LINC02716,1,0.126,0.467,-0.293,inactive
OR10AD1,1,0.938,0.404,-0.219,inactive
PIP4P1,1,2.62,2.86,3.64,active

Entries above marked active, once more:
target,reagent no.,"robust z-score, replicate 1","robust z-score, replicate 2","robust z-score, replicate 3",Call
PKD1L1-AS1,1,2.13,2.11,1.83,active
DNAH17,1,-1.93,-2.18,-1.49,active
PLEKHG1,1,-1.14,-2.09,-2.19,active
GPR22,1,2.41,2.02,2.83,active
DPPA3,1,2.31,2.01,1.99,active
GLIS2,1,-1.85,-2.48,-2.31,active
PRM1,1,-2.38,-0.47,-2.46,active
GNB5,1,2.11,3.41,2.36,active
NHSL1,1,2.1,1.95,0.646,active
UHMK1,1,2.13,3.53,1.72,active
CLPS,1,1.98,2.27,2.17,active
PIP4P1,1,2.62,2.86,3.64,active
